Test results reported in article PMC2774517.
These are yes or no findings as the source states them, for the method shown. In cells and extracts the contact can be indirect. Binding calls can cover weak binding; strength is not graded here.

Biological target: GST-CAPN3, exon 6 deletion variant (Δ6) of Capn3 (mouse)
Assay: pull-down; GST fusion (or GST) bound to GST sepharose beads from cleared E. coli lysate and washed; IM2 mouse myoblast lysate (buffer B: 50 mM Tris-HCl pH 7.5, 150 mM NaCl, 0.2% Triton X-100; pre-treated with GST sepharose beads) added, overnight at 4°C; beads washed 5x; immunoblot with anti-CAPN3 or anti-PARVB; only the target purified

binding: binds
B1: endogenous PARVB of IM2 myoblasts (protein, UniProt Q9ES46 1-365)
chain: MSSAPPRSPTPRAPKMKKDESFLGKLGGTLARKKKTREVTDLQEEGKSAINSPMAPALVDIHPEDTQLEENEERTMIDPTSREDPKFKELVKVLLDWINDVLAEERIIVKQLEEDLYDGQVLQKLLEKLAHCKLNVAEVTQSEIGQKQKLQTVLEAVQDLLRPHGWPLRWNVDSIHGKNLVAILHLLVSLAMHFRAPIHLPEHVTVQVVVVRKREGLLHSSHISEELTTTTEIMMGRFERDAFDTLFDHAPDKLNLVKKSLITFVNKHLNKLNLEVTDLETQFADGVYLVLLLGLLEDYFVPLHNFYLTPDSFDQKVHNVAFAFELMLDGGLKKPKARPEDVVNLDLKSTLRVLYTLFTKYKDVE
